Source: PubChem BioAssay AID1345085 (National Center for Advancing Translational Sciences (NCATS), 2018)
This list was built around the results that the source calls inconclusive (neither active nor inactive); the mix of calls is not that of the screen. A potency beside an inconclusive call is a rough fit, not a confirmed value. Calls of active or inactive are those of the source. The call rests on the fitted dose curve; in most records, active means well fitted cell-killing curve with a large enough effect; inconclusive means small, poorly fitted or top-dose-only effect, or effect the other way; inactive means no such curve, though single readings can be large or run the other way.

test system: Tov-21-G; assay: Confirmatory qHTS for gynecologic anti-cancer compounds from libraries of approved drugs and bioactive compounds; conditions: gynecologic cancer cell panel viability, ATPlite luminescence, 48 h; series mostly up to 57.7 µM; further: nearly all actives have a fitted effect of over 55% in size
Procedure, shortened: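 Cells (1,000/well) plated 16 h, then exposed 48 h at 37 °C to 11 concentrations (1:3) from 57.5 uM to 0.977 nM. Viability by ATPlite luminescence after 15 min; IC50 derived, with HEK 293T used for selectivity index.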
Potency means the concentration at half of the fitted maximal effect.

SMILES	Potency
Nc1nc(=S)c2[nH]cnc2[nH]1	inactive
COc1cc2ncnc(Nc3ccc(F)c(Cl)c3)c2cc1OCCCN1CCOCC1	inconclusive: 4.32 µM [cytotoxic, full curve, poor fit]
CCC1=CC2CN(C1)Cc1c([nH]c3ccccc13)[C@@](C(=O)OC)(c1cc3c(cc1OC)N(C)[C@H]1[C@@](O)(C(=O)OC)[C@H](OC(C)=O)[C@]4(CC)C=CCN5CC[C@]31[C@@H]54)C2 (some centres undefined)	active: 2.37 µM
CCOc1cc2ncc(C#N)c(Nc3ccc(F)c(Cl)c3)c2cc1NC(=O)/C=C/CN(C)C	active: 2.17 µM
CCOC(=O)C1=C(C)NC2=C(C(=O)CC(C)(C)C2)C1c1ccc(-c2ccccc2)cc1 (centres undefined)	inconclusive: 0.172 µM [rising, partial curve, poor fit]
Cc1cnc(Nc2ccc(F)cc2Cl)nc1-c1c[nH]c(C(=O)NC(CO)c2cccc(Cl)c2)c1 (centres undefined)	inconclusive: 21.7 µM [cytotoxic, single point]
C[C@]12CCC(=O)C=C1[C@@H]1C[C@@H]1[C@H]1[C@@H]3[C@@H]4C[C@@H]4[C@@]4(CCC(=O)O4)[C@@]3(C)CC[C@@H]12	inconclusive: 48.5 µM [cytotoxic, partial curve, poor fit]
Cn1cnc2c(F)c(Nc3ccc(Br)cc3F)c(C(=O)NOCCO)cc21	inconclusive: 8.63 µM [cytotoxic, partial curve, poor fit]
Cc1ccc(C(=O)N(CCCN)C(c2oc3cc(Cl)ccc3c(=O)c2Cc2ccccc2)C(C)C)cc1 (centres undefined)	inconclusive: 43.2 µM [cytotoxic, single point]
